Data on 9 molecules can be found in article doi:10.1101/2024.09.09.24313318.

The chains behind the UniProt entries cited, without tags or fusion partners.
UniProt O95817, whole entry: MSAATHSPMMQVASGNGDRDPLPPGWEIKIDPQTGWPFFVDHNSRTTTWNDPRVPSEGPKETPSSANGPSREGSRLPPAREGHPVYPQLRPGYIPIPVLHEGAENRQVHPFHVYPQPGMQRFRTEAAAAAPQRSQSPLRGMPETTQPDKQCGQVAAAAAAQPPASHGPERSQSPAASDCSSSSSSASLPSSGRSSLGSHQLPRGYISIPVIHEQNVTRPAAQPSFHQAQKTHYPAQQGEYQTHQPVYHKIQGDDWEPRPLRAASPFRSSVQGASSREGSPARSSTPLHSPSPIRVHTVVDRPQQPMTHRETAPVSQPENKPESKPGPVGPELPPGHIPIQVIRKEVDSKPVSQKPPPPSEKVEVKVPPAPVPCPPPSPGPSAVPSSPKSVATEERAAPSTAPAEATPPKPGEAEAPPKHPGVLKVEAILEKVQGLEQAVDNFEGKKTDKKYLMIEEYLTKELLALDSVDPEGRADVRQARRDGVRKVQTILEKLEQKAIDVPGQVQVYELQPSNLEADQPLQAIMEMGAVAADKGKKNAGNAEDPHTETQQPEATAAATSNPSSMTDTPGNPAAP

The labels stand for the following.
B1: CASP4 (protein, UniProt P49662 1-377)
chain: MAEGNHRKKPLKVLESLGKDFLTGVLDNLVEQNVLNWKEEEKKKYYDAKTEDKVRVMADSMQEKQRMAGQMLLQTFFNIDQISPNKKAHPNMEAGPPESGESTDALKLCPHEEFLRLCKERAEEIYPIKERNNRTRLALIICNTEFDHLPPRNGADFDITGMKELLEGLDYSVDVEENLTARDMESALRAFATRPEHKSSDSTFLVLMSHGILEGICGTVHDEKKPDVLLYDTIFQIFNNRNCLSLKDKPKVIIVQACRGANRGELWVRDSPASLEVASSQSSENLEEDAVYKTHVEKDFIAFCSSTPHNVSWRDSTMGSIFITQLITCFQKYSWCCHLEEVFRKVQQSFETPRAKAQMPTIERLSMTRYFYLFPGN
B2: Hsp70-binding protein 1 (protein, UniProt Q9NZL4 1-359)
chain: MSDEGSRGSRLPLALPPASQGCSSGGGGGGSSAGGSGNSRPPRNLQGLLQMAITAGSEEPDPPPEPMSEERRQWLQEAMSAAFRGQREEVEQMKSCLRVLSQPMPPTAGEAEQAADQQEREGALELLADLCENMDNAADFCQLSGMHLLVGRYLEAGAAGLRWRAAQLIGTCSQNVAAIQEQVLGLGALRKLLRLLDRDACDTVRVKALFAISCLVREQEAGLLQFLRLDGFSVLMRAMQQQVQKLKVKSAFLLQNLLVGHPEHKGTLCSMGMVQQLVALVRTEHSPFHEHVLGALCSLVTDFPQGVRECREPELGLEELLRHRCQLLQQHEEYQEELEFCEKLLQTCFSSPADDSMDR

Results are given in words; binding and its absence hold for the method and conditions named. Binding seen in cells or lysates may run through a third protein. Here binding means that the protein was enriched with, or labelled near, the bait; the list need not be complete.

The test concerns the target BioID-BAG3 (BAG cochaperone 3, Bcl-2-associated athanogene 3, fused to the BioID biotin ligase) (UniProt O95817). Briefly: proximity labelling.
In the case of “NADH dehydrogenase flavoprotein 1, mitochondrial (from UniProt P49821 21-464)”, the binding entry is recorded as “binds”.
Take CASP1 (from UniProt P29466 1-404): the binding result was “binds”.
As to “Bcl-2-associated transcription factor 1 (from UniProt Q9NYF8 1-920)”, the binding entry was “binds”.
To “NADH dehydrogenase 1 beta subcomplex subunit 3 (from UniProt O43676 1-98)” belongs “binds”; to “NADH dehydrogenase 1 beta subcomplex subunit 6 (from UniProt O95139 1-128)”, “binds”.
On to “heat shock 70 kDa protein 6 (from UniProt P17066 1-643)”, for which the binding entry was “binds”.
For the molecule “complement component 1 Q subcomponent-binding protein, mitochondrial (from UniProt Q07021 74-282)”, the binding entry is recorded as “binds”.
To B1 belongs “binds”.
Regarding B2, the binding entry is on record as “binds”.
